Data as given in PubChem BioAssay AID1508588 (Peter MacCallum Cancer Centre, 2020)
Shown is one part, drawn at random, of about 18,000 reagents. 790 of all reagents (4.4%) count as active. 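Calls rest on a combination of fold-change classes in drug and vehicle arms, not all shown here.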 Entries without a mark were called inactive. Reagent sequences are not shown.

Assay: 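Genome-wide search for knock-downs that heighten vemurafenib action in melanoma cells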 (primary screen)
Cells: human WM266.4 melanoma cells (BRAF V600 mutant)
Reagent: siRNA pool against human genes, 40 nM
Time to read-out: 96 h from transfection to read-out
Treatment: vemurafenib 300 nM (about IC25), added 48 h after transfection, for 48 h; comparison arm got DMSO vehicle only
Measured: 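Ratios to non-targeting siRNA for cell gain, counted as DAPI nuclei after minus before drug and averaged over two replicates, and for absorbance-read medium lactate per cell; both binned into fold-change classes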
Direction: cell gain with vemurafenib: higher = more cell gain than with non-targeting siRNA; lactate per cell with vemurafenib: higher = more lactate made per cell
Call rule: 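Enhancement is called by pairing each knock-down's vehicle-arm and drug-arm fold-change classes for viability or glycolysis; which class combinations qualify is not given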
Calls: active = enhances vemurafenib effect; inactive = no enhancement seen

gene knocked down,cell gain with vemurafenib,lactate per cell with vemurafenib
NSMCE4A,0.8,0.7
POLR2F,0.02,1.66
EQTN,0.69,1.16
PSG2,0.43,0.82
ZFP28,0.76,0.65
MBD2,0.12,3.06
EGFL8,0.83,0.98
SUPV3L1,0.4,3.19
NYX,0.2,2.19
HCRTR2,0.47,1.04
CHKA,0.53,1.21
SV2C,0.52,1.29
HSD17B11,0.61,0.4
LMNB1,0.3,0.69
TGOLN2,0.03,1.23
HSFX1,0.17,0.78
TRIM13,1.11,0.48
GHRL,0.84,0.62
DOCK8-AS1,0.28,1.7
E2F2,0.83,0.88
CXXC5,0.27,1.47
SLC35F4,0.8,1.1
NIPAL1,0.37,1.09
RNASET2,0.72,0.98
DDX46,0.1,1.26
SPATA8,0.64,1
MGAM,1.08,0.99
CAMK2A,0.79,0.76
EPN3,0.52,0.42
FTHL17,0,0.67
TTR,0.15,0.98
SRRM2,0.59 (active),0.52
PLCH1,0.96,1.22
ADAMTS9,0.67,0.57
ADAP2,0.21,0.84
TAGLN,0.32,1.21
EFCC1,1.11,0.65
BRICD5,0.59,0.84
ZFP42,1.31 (active),-0.06
USP8,0.81,0.88
SPATA31A3,1.03,0.46
TRMT112,0.32,0.88
NXT1,1.63,1.01
CFDP1,0.34,0.71
LSAMP,0.7,0.42
PWWP2B,0.61,1.42
TMEM80,0.61,1.17
RNF151,0.58,0.96
SLX9,0.78,1.19
LEMD2,1.16 (active),0.4
USP35,0.54,1.39
INO80C,0.55,1.32
C1QC,0.13,0.87
FOS,0.39,0.9
PPFIA3,0.53,0.78
GC,0.33,0.96
CEBPA,0.94,1.06
SYNGR1,0.18,2.9
IFT122,0.27,0.69
NTN5,0.48,0.82
OPRL1,0.35,1.44
MTREX,0.61,1.1
YPEL3,0.58,1.19
PLIN5,0.31,1.12
TSC2,0.64,0.99
POU1F1,0.56,1.73
WFDC9,0.79,0.74
NABP2,0.67,1.35
C7orf33,0.23,0.93
PRELID3B,0.28,1.08
GDI1,0.97,0.71
DDAH1,0.82,0.8
TSPO2,0.85,0.6
PRY2,0.61 (active),0.29
ZSCAN5B,0.51,0.7
PHRF1,0.53,0.88
CORO1C,0.41,0.64
BAP1,0.81,0.6
DICER1,0.38,0.74
MYCL,0.55,1.41
GNAI3,0.54,0.74
PLOD1,0.83,0.48
FAM163B,0.44,1.48
KNTC1,0.6 (active),0.57
NT5C3B,0.81,1.42
ARHGEF26,0.74,0.84
RPL15,0.19,1.4
UPK3B,0.48,1.52
IL17RC,0.5,0.86
TUBB,0.47,1.61
TCF7L1,0.67,0.62
TPX2,-0.11,2.64
HNRNPA1L2,0.38,1.93
HGD,0.53,1.34
HMGCS1,0.34,1.77
ZMYM4,0.77,0.46
VHL,0.78,1.27
ACR,0.69,0.82
PITPNC1,0.45 (active),0.38
STXBP4,1.21,1.12
KRTAP5-8,0.58,1.11
XAB2,0.15,1.73
METTL25B,1.28,1.19
TPD52L2,1.23,0.75
CLEC14A,0.57 (active),0.49
ADGRE5,0.1,1.42
CNOT3,0.45,1.68

Sorted by “cell gain with vemurafenib” (descending): 12 of the entries above.
gene knocked down,cell gain with vemurafenib,lactate per cell with vemurafenib
GDI1,0.97,0.71
TSPO2,0.85,0.6
PLOD1,0.83,0.48
DDAH1,0.82,0.8
BAP1,0.81,0.6
PRY2,0.61 (active),0.29
MYCL,0.55,1.41
GNAI3,0.54,0.74
PHRF1,0.53,0.88
ZSCAN5B,0.51,0.7
CORO1C,0.41,0.64
DICER1,0.38,0.74
